These are yes or no findings as the source states them, for the method shown. For some of these results: In cells and extracts the contact can be indirect. Some binding calls cover weakened binding; strength is not graded here. For some of these results: Where a sequence is shown, tags or fusion partners need not be part of it.

Protein sequences, listed by entry. Tags and fused reporters are not part of them.
UniProt Q96321: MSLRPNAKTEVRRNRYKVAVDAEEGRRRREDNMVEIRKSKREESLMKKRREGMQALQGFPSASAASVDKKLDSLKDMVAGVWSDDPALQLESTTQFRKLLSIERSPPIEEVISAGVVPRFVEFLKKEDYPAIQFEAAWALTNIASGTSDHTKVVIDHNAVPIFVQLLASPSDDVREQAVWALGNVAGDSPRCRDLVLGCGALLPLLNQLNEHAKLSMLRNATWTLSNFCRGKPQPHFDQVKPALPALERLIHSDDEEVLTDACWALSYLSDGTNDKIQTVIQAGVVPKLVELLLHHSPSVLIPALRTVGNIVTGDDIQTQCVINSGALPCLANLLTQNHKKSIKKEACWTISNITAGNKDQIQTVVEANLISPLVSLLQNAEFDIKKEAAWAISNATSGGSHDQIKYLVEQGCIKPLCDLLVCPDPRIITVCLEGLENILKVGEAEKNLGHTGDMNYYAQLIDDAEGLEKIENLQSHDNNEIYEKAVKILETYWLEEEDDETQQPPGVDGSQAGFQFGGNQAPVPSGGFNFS
UniProt F4JL11: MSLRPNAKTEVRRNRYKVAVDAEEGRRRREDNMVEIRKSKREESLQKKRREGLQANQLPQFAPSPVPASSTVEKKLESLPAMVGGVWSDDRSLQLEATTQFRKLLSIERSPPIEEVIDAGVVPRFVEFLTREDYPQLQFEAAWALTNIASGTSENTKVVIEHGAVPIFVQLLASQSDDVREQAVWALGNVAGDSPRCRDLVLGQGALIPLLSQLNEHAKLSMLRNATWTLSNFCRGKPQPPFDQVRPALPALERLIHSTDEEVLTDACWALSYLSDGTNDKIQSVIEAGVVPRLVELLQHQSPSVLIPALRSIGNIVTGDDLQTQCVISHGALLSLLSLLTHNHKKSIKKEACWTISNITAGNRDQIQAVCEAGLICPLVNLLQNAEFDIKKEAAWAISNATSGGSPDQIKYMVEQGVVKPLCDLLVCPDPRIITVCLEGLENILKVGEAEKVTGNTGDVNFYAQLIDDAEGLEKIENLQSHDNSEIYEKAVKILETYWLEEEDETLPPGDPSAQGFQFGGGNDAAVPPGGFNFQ
UniProt O04294: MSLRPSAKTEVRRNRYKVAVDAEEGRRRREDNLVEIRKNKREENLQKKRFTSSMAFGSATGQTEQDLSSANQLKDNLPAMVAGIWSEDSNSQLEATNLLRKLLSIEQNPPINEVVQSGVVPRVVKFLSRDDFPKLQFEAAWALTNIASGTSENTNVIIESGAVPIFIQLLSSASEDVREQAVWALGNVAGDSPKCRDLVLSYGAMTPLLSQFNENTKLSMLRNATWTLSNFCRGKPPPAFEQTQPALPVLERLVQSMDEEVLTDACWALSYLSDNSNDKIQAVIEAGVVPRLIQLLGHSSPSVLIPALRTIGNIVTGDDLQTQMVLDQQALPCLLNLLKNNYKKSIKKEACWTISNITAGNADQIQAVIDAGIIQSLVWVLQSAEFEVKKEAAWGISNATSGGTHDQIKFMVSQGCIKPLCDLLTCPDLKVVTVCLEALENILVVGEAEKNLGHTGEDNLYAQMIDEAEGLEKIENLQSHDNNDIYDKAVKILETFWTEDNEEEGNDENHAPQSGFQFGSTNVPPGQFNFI
UniProt O80480: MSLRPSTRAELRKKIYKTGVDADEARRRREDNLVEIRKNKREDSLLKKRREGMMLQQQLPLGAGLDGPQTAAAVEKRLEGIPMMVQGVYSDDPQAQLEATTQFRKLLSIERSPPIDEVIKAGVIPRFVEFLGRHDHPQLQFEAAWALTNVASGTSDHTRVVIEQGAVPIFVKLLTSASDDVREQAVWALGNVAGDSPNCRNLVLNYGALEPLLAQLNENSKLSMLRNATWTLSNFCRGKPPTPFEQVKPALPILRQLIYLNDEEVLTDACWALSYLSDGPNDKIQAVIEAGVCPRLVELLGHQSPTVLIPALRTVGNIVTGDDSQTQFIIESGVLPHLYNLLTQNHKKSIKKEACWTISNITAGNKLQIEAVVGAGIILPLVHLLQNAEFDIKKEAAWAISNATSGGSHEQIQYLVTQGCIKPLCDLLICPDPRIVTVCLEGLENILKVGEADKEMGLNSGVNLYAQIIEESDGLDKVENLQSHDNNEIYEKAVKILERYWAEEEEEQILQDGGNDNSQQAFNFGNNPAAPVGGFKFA
UniProt Q93ZV7: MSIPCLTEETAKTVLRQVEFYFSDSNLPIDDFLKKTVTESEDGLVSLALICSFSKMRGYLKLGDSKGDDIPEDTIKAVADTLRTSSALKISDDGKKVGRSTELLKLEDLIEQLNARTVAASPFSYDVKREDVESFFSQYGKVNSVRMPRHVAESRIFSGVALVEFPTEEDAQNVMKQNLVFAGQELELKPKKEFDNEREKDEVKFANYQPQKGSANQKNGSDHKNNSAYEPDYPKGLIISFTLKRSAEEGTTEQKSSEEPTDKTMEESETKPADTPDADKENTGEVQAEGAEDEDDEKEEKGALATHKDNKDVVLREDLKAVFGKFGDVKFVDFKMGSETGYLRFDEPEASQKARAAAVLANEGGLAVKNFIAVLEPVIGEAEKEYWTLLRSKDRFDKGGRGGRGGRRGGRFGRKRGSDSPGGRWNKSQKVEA
UniProt O22467: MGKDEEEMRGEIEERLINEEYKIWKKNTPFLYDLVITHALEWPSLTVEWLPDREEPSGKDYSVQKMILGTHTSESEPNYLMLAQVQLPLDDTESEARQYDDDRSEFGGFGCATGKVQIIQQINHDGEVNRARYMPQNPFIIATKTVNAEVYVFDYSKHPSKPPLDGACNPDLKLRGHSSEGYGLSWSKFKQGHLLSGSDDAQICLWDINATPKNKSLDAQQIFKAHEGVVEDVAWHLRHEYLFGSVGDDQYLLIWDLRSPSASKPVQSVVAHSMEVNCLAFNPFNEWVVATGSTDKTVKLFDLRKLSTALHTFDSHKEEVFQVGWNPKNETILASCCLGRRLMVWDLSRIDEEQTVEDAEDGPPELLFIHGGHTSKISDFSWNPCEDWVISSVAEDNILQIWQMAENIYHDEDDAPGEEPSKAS
UniProt Q9SZI2: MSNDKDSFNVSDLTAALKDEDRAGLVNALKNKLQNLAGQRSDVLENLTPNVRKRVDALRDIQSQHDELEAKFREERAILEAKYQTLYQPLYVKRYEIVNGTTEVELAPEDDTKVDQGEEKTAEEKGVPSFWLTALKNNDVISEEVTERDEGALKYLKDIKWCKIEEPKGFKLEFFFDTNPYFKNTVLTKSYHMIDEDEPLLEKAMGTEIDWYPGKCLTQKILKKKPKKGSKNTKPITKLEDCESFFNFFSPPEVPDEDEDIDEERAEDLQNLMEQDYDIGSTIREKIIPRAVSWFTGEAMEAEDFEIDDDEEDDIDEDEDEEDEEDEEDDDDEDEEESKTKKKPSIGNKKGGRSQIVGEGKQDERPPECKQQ
UniProt Q94K07: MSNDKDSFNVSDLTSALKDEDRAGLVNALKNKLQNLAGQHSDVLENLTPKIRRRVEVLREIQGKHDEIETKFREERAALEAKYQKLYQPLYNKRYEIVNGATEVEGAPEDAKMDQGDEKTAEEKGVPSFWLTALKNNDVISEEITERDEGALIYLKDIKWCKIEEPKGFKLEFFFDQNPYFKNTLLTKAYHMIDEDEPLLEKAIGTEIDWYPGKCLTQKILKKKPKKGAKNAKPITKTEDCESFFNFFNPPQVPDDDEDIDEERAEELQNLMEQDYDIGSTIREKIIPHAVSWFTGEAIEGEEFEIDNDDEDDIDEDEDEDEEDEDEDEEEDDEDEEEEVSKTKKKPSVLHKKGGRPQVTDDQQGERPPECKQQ
UniProt Q94A52: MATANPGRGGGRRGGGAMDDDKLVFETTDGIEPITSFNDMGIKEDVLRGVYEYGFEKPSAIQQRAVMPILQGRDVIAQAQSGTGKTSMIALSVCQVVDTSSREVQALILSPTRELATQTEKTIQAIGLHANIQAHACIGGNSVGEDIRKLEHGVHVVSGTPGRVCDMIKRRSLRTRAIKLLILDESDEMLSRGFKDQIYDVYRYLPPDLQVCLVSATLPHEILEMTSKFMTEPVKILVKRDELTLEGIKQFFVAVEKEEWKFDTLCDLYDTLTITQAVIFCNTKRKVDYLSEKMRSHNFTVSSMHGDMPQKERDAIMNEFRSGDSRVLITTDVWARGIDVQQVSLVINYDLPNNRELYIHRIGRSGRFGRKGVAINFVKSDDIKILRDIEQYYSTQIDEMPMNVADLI
UniProt Q8H1G0: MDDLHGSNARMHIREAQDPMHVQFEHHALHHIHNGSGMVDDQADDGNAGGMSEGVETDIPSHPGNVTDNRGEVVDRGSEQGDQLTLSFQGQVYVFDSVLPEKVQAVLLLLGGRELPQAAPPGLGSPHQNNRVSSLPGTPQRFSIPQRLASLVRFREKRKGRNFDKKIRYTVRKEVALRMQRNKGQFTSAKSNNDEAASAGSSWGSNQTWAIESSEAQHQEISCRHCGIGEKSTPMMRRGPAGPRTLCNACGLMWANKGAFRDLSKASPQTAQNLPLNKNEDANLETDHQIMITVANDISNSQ

Experimental findings from paper PMC8745574 are described below.

Test [1] addresses T1, AtTERT TEN construct (1-233 aa) (Arabidopsis thaliana) (UniProt Q9SPU7).
T1 sequence: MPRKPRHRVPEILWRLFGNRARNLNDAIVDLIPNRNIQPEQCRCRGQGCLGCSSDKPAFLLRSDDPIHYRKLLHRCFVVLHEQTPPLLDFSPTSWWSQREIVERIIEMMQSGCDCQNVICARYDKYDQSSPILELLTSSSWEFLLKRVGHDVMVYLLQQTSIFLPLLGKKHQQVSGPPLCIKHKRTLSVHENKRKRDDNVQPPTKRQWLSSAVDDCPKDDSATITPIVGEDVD
In words: two-hybrid; Matchmaker GAL4 system, pGADT7-DEST/pGBKT7-DEST, S. cerevisiae PJ69-4α, 30 °C; growth on -LWH plates (with increasing 3-aminotriazol) and -LWHAde plates.

In test [2] the target is T2, AtTERT RID construct (1-271 aa) (Arabidopsis thaliana) (UniProt Q9SPU7).
T2 sequence: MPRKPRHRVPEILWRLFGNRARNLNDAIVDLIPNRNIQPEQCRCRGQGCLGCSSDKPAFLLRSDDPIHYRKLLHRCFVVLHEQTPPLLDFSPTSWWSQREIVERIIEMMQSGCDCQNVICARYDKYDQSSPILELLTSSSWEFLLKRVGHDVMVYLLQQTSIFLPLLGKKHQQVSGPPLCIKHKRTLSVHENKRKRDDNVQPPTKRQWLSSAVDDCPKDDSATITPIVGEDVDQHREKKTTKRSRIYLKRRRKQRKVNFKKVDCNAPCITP
Described as above.

The target of test [3] is T3, POT1a (Arabidopsis thaliana) (UniProt Q56Y52).
T3 sequence: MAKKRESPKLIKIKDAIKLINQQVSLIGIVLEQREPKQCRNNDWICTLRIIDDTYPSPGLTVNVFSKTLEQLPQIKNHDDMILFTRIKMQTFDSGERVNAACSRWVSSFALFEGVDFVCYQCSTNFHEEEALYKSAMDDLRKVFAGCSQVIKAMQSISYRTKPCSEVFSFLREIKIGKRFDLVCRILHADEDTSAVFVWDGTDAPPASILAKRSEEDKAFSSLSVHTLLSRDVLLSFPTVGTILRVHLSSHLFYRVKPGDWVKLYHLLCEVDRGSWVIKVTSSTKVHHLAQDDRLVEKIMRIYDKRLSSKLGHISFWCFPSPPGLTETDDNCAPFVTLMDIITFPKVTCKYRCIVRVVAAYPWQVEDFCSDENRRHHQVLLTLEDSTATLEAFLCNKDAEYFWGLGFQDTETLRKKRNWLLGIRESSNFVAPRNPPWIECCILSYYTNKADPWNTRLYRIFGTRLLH
Described as above.

Test [4] has as its target T4, AtTERT Fw3NNLS construct (229-582 aa) (Arabidopsis thaliana) (UniProt Q9SPU7).
T4 sequence: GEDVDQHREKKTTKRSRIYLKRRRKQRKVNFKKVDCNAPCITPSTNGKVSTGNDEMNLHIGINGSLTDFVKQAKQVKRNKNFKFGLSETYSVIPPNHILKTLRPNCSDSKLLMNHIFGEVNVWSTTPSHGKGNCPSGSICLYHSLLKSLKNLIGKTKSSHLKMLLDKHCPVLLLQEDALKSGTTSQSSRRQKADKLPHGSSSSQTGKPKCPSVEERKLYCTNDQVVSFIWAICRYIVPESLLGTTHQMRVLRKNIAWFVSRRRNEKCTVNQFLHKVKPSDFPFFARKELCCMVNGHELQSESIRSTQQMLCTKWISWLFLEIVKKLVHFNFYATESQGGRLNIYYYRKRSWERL
Described as above.

Test [5] has as its target T5, cYFP-RID (N. benthamiana) (Arabidopsis thaliana) (UniProt Q9SPU7).
T5 sequence: T2 sequence
The test is described as follows: split reporter; BiFC, nYFP/cYFP constructs (pE-SPYNE-GW, pE-SPYCE-GW, pC-SPYNE-GW) transiently expressed in N. benthamiana leaves, confocal microscopy after 3 days.

Test [6] concerns the target T6, cYFP-RID (Arabidopsis protoplasts) (Arabidopsis thaliana) (UniProt Q9SPU7).
T6 sequence: T2 sequence
In words: split reporter; BiFC, pSAT1-nEYFP-C1/pSAT1-cEYFP-C1-B constructs in Arabidopsis protoplasts, confocal microscopy 16 h after transfection.

Turning to ImpA1 (from UniProt Q96321 1-532), the binding result in test [1] and in test [2] was “binds” in each case.

ImpA2 (from UniProt F4JL11 1-535): the binding entry in test [1] and in test [2] was “binds” throughout.

Consider ImpA3 (from UniProt O04294 1-531), for which the binding result in test [1] and in test [2] was “binds” throughout.

As to ImpA4 (from UniProt O80480 1-538), the binding entry in test [1] and in test [2] was “binds” throughout.

For La1 (from UniProt Q93ZV7 1-433), the binding result in test [3] is on record as “no binding”.

Consider “MSI1 (multicopy suppressor of IRA 1) (from UniProt O22467 1-424)”, for which, in test [3], the binding entry was “no binding”.

With NAP1;1 (from UniProt Q9SZI2 1-372), the binding result in test [4] and in test [2] was “binds” throughout.

Regarding NAP1;3 (from UniProt Q94K07 1-374), the binding result in test [4] and in test [2] was “binds” throughout.

On to “RH2 nYFP construct (N. benthamiana) (from UniProt Q94A52 1-408)”, for which, in test [5], the binding result is recorded as “binds”.

As for “RH2 nYFP construct (protoplasts) (from UniProt Q94A52 1-408)”, in test [6], the binding entry is “binds”.

As to “RNA helicase 2 (RH2) (from UniProt Q94A52 1-408)”, the binding entry in test [2] is recorded as “binds”.

For “ZML2 (ZIM-LIKE 2) (from UniProt Q8H1G0 1-302)”, the binding result in test [3] and in test [1] was “binds” throughout.

Consider nYFP-ImpA1 (from UniProt Q96321 1-532), for which the binding entry in test [5] is recorded as “binds”.

In the case of nYFP-ImpA2 (from UniProt F4JL11 1-535), the binding entry in test [5] is “binds”.

As to nYFP-ImpA3 (from UniProt O04294 1-531), the binding result in test [5] is recorded as “binds”.
